Results as given in the supplement of paper PMC10849652.
The list shows a part of the results.

Protein sequences, listed by entry. Tags and fused reporters are not part of them. Lines headed by an entry give the natural chain unless they say otherwise; changes in a name come on top.
UniProt O43734: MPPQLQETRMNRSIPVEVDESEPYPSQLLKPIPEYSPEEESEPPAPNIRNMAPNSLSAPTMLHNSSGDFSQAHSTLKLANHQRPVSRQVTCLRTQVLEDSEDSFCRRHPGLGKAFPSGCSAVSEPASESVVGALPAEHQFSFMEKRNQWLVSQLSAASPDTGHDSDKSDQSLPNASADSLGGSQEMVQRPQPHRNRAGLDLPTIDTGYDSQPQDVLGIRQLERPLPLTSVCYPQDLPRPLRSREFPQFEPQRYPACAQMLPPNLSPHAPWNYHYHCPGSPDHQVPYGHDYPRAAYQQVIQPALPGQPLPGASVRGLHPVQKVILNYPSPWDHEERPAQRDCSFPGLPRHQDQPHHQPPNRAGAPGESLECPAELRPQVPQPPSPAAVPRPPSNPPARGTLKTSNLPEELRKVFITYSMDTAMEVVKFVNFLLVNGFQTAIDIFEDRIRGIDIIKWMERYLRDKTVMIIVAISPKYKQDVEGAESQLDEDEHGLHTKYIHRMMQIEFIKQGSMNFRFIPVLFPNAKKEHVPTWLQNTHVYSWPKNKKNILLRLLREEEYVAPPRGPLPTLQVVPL
UniProt O94972: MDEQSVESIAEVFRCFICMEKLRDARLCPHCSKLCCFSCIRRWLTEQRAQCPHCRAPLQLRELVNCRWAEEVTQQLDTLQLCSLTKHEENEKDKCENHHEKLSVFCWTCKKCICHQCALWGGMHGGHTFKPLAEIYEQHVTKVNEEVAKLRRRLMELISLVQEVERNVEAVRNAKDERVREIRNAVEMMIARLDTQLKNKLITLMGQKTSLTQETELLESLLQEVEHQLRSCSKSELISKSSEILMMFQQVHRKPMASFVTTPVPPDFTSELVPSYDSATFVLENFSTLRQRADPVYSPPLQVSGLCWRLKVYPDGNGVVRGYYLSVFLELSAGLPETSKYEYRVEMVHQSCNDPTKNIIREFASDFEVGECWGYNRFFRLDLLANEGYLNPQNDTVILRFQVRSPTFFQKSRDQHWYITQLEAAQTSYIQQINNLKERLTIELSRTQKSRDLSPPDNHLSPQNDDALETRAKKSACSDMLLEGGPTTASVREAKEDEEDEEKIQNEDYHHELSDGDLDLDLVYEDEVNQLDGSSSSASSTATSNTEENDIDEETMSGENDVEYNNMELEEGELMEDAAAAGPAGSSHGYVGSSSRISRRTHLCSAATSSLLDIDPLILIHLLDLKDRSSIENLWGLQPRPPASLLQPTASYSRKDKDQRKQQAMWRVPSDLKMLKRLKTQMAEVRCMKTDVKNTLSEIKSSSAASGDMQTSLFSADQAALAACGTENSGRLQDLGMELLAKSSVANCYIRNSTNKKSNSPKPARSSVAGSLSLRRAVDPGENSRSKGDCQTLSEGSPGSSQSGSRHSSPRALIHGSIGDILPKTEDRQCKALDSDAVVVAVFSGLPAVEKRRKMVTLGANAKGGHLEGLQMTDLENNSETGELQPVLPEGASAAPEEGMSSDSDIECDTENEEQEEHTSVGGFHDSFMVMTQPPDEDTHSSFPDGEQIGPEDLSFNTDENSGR
UniProt Q6Q0C0: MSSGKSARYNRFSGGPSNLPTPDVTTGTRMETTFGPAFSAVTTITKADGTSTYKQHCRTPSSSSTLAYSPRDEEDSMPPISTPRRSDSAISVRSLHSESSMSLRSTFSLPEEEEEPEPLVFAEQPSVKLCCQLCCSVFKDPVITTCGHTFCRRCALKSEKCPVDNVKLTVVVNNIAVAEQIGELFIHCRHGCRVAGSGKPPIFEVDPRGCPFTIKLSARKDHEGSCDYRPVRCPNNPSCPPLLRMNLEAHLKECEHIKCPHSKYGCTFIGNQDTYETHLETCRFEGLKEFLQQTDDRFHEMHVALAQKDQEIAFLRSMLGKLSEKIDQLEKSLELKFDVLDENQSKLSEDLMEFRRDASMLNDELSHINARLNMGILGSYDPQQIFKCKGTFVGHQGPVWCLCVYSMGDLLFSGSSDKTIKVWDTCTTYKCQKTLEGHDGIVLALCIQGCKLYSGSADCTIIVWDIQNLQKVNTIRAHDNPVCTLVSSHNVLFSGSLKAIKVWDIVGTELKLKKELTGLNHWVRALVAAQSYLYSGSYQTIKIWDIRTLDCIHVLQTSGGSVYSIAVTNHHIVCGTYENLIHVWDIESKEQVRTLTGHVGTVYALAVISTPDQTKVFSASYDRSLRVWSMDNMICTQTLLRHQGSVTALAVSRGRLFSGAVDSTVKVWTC
UniProt O75382: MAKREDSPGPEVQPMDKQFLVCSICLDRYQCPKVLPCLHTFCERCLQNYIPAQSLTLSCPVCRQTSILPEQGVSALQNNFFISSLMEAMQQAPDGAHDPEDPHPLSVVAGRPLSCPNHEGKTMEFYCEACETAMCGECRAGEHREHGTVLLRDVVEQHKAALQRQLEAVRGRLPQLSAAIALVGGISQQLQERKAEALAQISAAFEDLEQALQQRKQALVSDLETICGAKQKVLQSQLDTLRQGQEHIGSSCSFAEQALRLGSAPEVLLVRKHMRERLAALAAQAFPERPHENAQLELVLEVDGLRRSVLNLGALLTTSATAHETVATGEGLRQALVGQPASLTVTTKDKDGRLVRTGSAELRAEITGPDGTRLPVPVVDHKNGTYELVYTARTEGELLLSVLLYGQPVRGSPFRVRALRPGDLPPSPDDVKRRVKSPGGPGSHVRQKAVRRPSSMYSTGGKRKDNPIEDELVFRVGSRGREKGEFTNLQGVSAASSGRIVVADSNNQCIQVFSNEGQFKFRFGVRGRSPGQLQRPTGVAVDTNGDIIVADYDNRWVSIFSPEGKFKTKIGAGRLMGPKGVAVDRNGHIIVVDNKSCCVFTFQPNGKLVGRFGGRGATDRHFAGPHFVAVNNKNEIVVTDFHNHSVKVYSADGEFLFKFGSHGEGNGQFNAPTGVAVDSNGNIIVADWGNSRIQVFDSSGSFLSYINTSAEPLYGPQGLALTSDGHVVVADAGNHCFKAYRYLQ
UniProt O43715: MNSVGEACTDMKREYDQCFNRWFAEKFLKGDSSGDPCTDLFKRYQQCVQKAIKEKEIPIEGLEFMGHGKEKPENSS
UniProt O60637: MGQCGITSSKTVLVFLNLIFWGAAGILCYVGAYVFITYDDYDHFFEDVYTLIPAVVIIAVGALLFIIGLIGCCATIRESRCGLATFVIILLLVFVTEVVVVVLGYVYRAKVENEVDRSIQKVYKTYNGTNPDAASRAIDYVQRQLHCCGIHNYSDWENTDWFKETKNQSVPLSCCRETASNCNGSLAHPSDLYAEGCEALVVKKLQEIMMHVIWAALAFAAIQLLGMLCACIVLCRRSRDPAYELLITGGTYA
UniProt Q9UJT2: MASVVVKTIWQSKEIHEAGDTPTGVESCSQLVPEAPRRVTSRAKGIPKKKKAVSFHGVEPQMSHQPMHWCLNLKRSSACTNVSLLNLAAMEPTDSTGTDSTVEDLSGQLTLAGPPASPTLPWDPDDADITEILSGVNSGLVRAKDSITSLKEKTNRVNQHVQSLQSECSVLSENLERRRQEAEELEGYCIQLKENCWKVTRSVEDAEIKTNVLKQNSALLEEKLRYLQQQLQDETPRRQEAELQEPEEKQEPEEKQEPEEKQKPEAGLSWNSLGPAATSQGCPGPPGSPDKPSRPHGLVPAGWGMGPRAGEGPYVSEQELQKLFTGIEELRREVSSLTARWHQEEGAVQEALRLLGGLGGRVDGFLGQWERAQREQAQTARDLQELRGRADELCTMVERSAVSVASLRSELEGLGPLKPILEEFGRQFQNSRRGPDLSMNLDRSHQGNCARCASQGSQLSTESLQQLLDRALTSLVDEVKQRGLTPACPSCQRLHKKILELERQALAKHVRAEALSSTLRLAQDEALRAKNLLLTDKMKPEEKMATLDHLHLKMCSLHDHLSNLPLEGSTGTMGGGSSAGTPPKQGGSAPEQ
UniProt O14717: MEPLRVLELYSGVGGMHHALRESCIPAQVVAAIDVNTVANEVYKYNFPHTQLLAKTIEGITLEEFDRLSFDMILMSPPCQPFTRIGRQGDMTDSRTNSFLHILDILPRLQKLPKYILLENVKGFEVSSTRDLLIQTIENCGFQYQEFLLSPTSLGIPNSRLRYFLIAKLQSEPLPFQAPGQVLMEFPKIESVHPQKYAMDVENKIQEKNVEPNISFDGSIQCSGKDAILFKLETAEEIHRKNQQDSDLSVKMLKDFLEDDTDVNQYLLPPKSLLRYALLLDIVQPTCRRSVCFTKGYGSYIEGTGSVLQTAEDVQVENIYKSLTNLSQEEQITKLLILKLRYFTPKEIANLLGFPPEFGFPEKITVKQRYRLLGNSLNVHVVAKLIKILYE
UniProt Q9BU70: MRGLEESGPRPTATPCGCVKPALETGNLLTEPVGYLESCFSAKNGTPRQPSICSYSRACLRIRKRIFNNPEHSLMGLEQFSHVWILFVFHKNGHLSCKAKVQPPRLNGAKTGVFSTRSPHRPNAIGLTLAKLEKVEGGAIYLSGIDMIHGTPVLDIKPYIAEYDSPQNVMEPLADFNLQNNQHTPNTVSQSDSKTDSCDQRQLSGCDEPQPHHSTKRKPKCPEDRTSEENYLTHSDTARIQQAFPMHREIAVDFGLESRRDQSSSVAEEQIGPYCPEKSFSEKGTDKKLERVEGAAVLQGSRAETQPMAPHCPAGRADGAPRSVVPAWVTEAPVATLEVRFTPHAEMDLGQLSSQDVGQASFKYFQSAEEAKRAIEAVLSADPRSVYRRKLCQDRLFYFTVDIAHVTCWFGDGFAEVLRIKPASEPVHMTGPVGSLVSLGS
UniProt Q8N4P2: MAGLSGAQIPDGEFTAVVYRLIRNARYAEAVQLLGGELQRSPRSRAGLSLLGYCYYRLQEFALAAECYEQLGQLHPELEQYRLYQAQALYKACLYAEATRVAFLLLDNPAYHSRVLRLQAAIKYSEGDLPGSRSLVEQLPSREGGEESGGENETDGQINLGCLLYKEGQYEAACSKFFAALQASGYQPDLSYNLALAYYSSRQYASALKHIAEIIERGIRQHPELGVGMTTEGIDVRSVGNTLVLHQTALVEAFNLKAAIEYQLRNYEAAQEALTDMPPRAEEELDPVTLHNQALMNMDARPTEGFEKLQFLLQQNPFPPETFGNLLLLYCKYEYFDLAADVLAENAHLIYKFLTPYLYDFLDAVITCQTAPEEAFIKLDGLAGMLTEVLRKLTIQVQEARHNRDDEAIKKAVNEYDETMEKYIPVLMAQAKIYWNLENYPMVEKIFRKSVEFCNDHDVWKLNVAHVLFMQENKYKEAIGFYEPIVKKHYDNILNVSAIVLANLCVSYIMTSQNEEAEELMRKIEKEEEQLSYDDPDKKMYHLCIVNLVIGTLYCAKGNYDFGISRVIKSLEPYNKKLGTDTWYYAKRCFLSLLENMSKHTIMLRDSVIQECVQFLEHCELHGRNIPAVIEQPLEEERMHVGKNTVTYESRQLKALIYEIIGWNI
UniProt O00463: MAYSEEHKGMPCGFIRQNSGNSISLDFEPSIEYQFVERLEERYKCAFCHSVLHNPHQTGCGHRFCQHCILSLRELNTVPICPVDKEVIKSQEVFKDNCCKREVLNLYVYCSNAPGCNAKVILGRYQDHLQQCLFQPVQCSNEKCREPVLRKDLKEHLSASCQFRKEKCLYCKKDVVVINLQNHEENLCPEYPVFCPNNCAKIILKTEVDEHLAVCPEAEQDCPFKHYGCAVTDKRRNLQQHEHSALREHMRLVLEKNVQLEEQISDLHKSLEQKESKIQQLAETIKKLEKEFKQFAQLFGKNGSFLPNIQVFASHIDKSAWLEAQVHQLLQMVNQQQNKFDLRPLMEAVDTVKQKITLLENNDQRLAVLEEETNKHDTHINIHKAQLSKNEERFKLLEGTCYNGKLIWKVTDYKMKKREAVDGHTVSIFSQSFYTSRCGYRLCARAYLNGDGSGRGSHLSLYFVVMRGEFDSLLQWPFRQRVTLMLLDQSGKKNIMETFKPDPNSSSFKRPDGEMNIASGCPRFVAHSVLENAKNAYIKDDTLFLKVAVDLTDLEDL
UniProt Q629K1: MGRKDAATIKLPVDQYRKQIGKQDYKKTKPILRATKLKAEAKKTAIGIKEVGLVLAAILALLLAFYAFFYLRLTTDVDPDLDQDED
UniProt Q6AZZ1: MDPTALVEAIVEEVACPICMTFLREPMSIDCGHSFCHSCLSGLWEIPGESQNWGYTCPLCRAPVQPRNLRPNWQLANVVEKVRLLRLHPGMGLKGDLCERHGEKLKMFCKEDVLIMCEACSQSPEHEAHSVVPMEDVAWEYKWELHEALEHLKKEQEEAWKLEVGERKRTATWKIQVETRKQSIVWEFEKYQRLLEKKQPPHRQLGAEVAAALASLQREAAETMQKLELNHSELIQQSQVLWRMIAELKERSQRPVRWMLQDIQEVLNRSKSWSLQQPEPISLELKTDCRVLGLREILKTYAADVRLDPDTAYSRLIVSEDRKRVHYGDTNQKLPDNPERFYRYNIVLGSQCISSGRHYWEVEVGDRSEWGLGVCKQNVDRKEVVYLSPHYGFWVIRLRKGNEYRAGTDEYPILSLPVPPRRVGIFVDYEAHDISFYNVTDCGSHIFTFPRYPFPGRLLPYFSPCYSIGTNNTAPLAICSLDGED

What follows are targets tested with C1=CC=C(C=C1)C2=NC(=C(N2)C3=CC=NC=C3)C4=CC(=C(C=C4)Cl)O (assay: log2 fold change, soluble protein after heating vs DMSO (PISA); higher = thermal stabilisation; K562 lysate, 10 uM; active = over 0.2 and 3.5 SD of the protein, either way, in both replicates (recomputed)).
In short: (§1)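 Thermal stability, expressed as log-two fold change relative to solvent controls, is given from duplicates. Crude K562 extract in PBS pH 7.4 with 1 mM MgCl2, at 1 mg/mL protein, was treated with 10 μM compound for 30 min and heated in aliquots for 3 min across 48°C-58°C. After pooling, adjustment to 0.5% NP-40 at 4°C and centrifugation at 21,000xg for 90 min, supernatant protein was measured by TMTpro 16plex LC-MS/MS with channel sums equalised.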

log2 fold change, inactive:
TRAF3IP2 (UniProt O43734) 0.038
TRAM2 (UniProt Q15035) -0.074
TRIM37 (UniProt O94972) -0.017
TRAF7 (UniProt Q6Q0C0) -0.026
TRIM67 (UniProt Q6ZTA4) 0.032
TTLL4 (UniProt Q14679) 0.155
TRPM4 (UniProt Q8TD43) 0.004
TRMT2B (UniProt Q96GJ1) -0.053
TRAF1 (UniProt Q13077) -0.058
TTC26 -0.159

These targets were tested with C1=CC=C2C(=C1)C3=NNC4=CC=CC(=C43)C2=O in the same assay as above.
In short: as §1

log2 fold change, inactive:
TRIM3 (UniProt O75382) 0.012
TRIAP1 (UniProt O43715) 0.051
TRPM7 (UniProt Q96QT4) -0.008
TSEN15, A0A2U3TZM3 0.035
TSPAN3 (UniProt O60637) -0.135
TRIM47 (UniProt Q96LD4) -0.013
TSKS (UniProt Q9UJT2) 0.083
TRDMT1 (UniProt O14717) -0.148
TRMO (UniProt Q9BU70) -0.112
TTC13 (UniProt Q8NBP0) -0.118
TRAF3IP2 (UniProt O43734) 0.203
TRAF7 (UniProt Q6Q0C0) -0.151
TTC30B (UniProt Q8N4P2) -0.157
TRIM41 (UniProt Q8WV44) 0.056
TSPAN31 (UniProt Q12999) -0.004

The targets below were run with C1CCN(C1)C(=O)NC2=CC=CC(=C2)NC3=NC=C(C(=N3)NCCC4=CN=CN4)Br in the same assay as above.
In short: as §1

log2 fold change, inactive:
TRAF5 isoform 2 (UniProt O00463) 0.106
TRIM3 (UniProt O75382) 0
TRIAP1 (UniProt O43715) 0.05
TRPM7 (UniProt Q96QT4) -0.1
TRIM16 (UniProt O95361) -0.028
TRIQK (UniProt Q629K1) 0.394
TTF1 (UniProt Q15361) -0.056
TSPAN3 (UniProt O60637) 0.006
TSC22D1 isoform 2 (UniProt Q15714) -0.481
TRIM47 (UniProt Q96LD4) -0.204
TTBK2 (UniProt Q6IQ55) -0.153
TSKS (UniProt Q9UJT2) -0.15
TRDMT1 (UniProt O14717) -0.01
TRMO (UniProt Q9BU70) -0.071
TRIM37 (UniProt O94972) 0.017
TRAF7 (UniProt Q6Q0C0) -0.05
TTC30B (UniProt Q8N4P2) -0.158
TSPYL2 (UniProt Q9H2G4) -0.278
TRIM67 (UniProt Q6ZTA4) -0.201
TRIM41 (UniProt Q8WV44) -0.045
TRIB3 (UniProt Q96RU7) -0.112
TRIM68 (UniProt Q6AZZ1) -0.272
TTC26 0.099

Each target was assayed with C1CN(CCC1(CC2=CC=C(C=C2)Cl)N)C3=NC=NC4=C3C=CN4 in the same assay as above.
In short: as §1

log2 fold change, inactive:
TRAF5 isoform 2 (UniProt O00463) -0.029
TRIM3 (UniProt O75382) -0.265
TRIAP1 (UniProt O43715) 0.133
TRPM7 (UniProt Q96QT4) 0.005
TRIM16 (UniProt O95361) -0.231
TRIQK (UniProt Q629K1) -0.001
TTF1 (UniProt Q15361) 0.101
TSPAN3 (UniProt O60637) 0.032
TSC22D1 isoform 2 (UniProt Q15714) 0.249
TRIM47 (UniProt Q96LD4) 0.111
TTBK2 (UniProt Q6IQ55) 0.06
TSKS (UniProt Q9UJT2) 0.094
TRDMT1 (UniProt O14717) -0.023
TRMO (UniProt Q9BU70) -0.172
TRIM37 (UniProt O94972) 0.069
TRAF7 (UniProt Q6Q0C0) 0.116
TTC30B (UniProt Q8N4P2) -0.02
TSPYL2 (UniProt Q9H2G4) 0.038
TRIM67 (UniProt Q6ZTA4) 0.054
TRIM41 (UniProt Q8WV44) -0.072
TRIB3 (UniProt Q96RU7) 0.065
TRIM68 (UniProt Q6AZZ1) -0.055
TTC26 0.213

The targets below were run with C1COCCN1CCN2C3=CC=CC=C3N=C2NC(=O)C4=CC(=CC=C4)[N+](=O)[O-] [IRAK-1-4 Inhibitor I] in the same assay as above.
In short: as §1

log2 fold change, inactive:
TRAF5 isoform 2 (UniProt O00463) 0.177
TRIM26 (UniProt Q12899) 0.145
TRIAP1 (UniProt O43715) -0.101
TRPM7 (UniProt Q96QT4) -0.097
TSPYL6 (UniProt Q8N831) -0.063
TRIQK (UniProt Q629K1) 0.015
TRMT10B (UniProt Q6PF06) 0.08
TSC22D3 isoform 3 (UniProt Q99576) 0.155
TSEN15, A0A2U3TZM3 -0.007
TSPAN3 (UniProt O60637) 0.091
TSC22D1 isoform 2 (UniProt Q15714) -0.039
TSKS (UniProt Q9UJT2) 0.134
TRDMT1 (UniProt O14717) -0.136
TTC3 (UniProt P53804) -0.043
TTC13 (UniProt Q8NBP0) 0.176
TSPYL1 (UniProt Q9H0U9) 0.028
TRAF3IP2 (UniProt O43734) -0.089
TRAM2 (UniProt Q15035) -0.015
TRIM37 (UniProt O94972) 0.158
TRAF7 (UniProt Q6Q0C0) -0.047
TRIM67 (UniProt Q6ZTA4) -0.021
TTLL4 (UniProt Q14679) 0.07
TRPM4 (UniProt Q8TD43) -0.152
TRMT2B (UniProt Q96GJ1) -0.01
TRAF1 (UniProt Q13077) 0.593
TTC26 -0.155
